Survivor count and T/C data for 14 compounds are collected here from PubChem BioAssay AID328 (DTP/NCI, 2004).

The list does not hold the whole screen: it gathers tests that were run many times, whatever their T/C, doses with no T/C, and many T/C values between a quarter and a half above the control. Other doses and runs of a compound stand elsewhere. T/C is the treated group as % of the vehicle group. Some entries give survivors of the animals treated and no T/C: the source holds a T/C of zero for them, seemingly a mark for toxic or unscored doses. Some survivor counts are full or nearly so, which does not show that the dose was tolerated: the source hardly ever lists a survival T/C far under the control, and the zero likely stands for such cases as well. Survivors were counted at the toxicity check, usually on the fifth day, unless a day is given; later deaths do not show. Schedules are NCI's codes, read here as Q, the interval in days (D) or hours (H), X, the number of doses. Some entries were tested several times; the results are listed from low to high. Some schedule codes hold Z or #, which are not explained here. For survival time, the PubChem record calls one and a half times the control and up active, and a quarter to a half above the control has no call in these data; cut-offs in other NCI protocols can differ. Additions like (4×) stand for listed records that agree. Some T/C values are followed by the survivors on the day toxicity was checked, most often the fifth; where none is given, no animal had died by that day.

The subject of the assay is BDF1 mice, P388 leukemia ip, median survival T/C. In words: NCI In Vivo Anticancer Drug Screen. Data for tumor model P388 Leukemia (intraperitoneal) in B6D2F1 (BDF1) mice. The note with it: T/C endpoint: median survival time, higher T/C = longer survival. In short, it runs like this: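 Read-out is survival of treated animals expressed relative to the vehicle group, as a T/C ratio.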

The mark [1] stands for this setting: dose: 200.0 mg/kg/injection, schedule: Q01DX009 (ip), vehicle: water.
The mark [2] stands for this setting: dose: 400.0 mg/kg/injection, schedule: Q01DX009 (ip), vehicle: water.
Setting [3] is: dose: 100.0 mg/kg/injection, schedule: Q01DX009 (ip), vehicle: saline with Tween-80.
Setting [4] is: dose: 200.0 mg/kg/injection, schedule: Q01DX009 (ip), vehicle: saline with Tween-80.
[5] abbreviates: dose: 100.0 mg/kg/injection, schedule: Q04DX003 (ip), vehicle: Klucel (hydroxypropylcellulose) (HPC).
[6] abbreviates: dose: 12.5 mg/kg/injection, schedule: Q01DX009 (ip), vehicle: Klucel (hydroxypropylcellulose) (HPC).
Where [7] appears, read: dose: 25.0 mg/kg/injection, schedule: Q01DX009 (ip), vehicle: Klucel (hydroxypropylcellulose) (HPC).
The mark [8] stands for this setting: dose: 50.0 mg/kg/injection, schedule: Q01DX009 (ip), vehicle: Klucel (hydroxypropylcellulose) (HPC).
The mark [9] stands for this setting: dose: 200.0 mg/kg/injection, schedule: Q04DX003 (ip), vehicle: Klucel (hydroxypropylcellulose) (HPC).

For `COc1ccc(C2=CC(c3ccc(OC)c(OC)c3)c3c(c4ccccc4oc3=O)O2)cc1OC` (centres undefined), the survivor count is 4 of 6 (dose: 100.0 mg/kg/injection, schedule: Q04DX003 (ip), vehicle: water); 6 of 6 under setting [1]; 6 of 6 (dose: 300.0 mg/kg/injection, schedule: Q01DX009 (ip), vehicle: water); 4 of 6 under setting [2]. Moreover, the T/C under setting [1] was 126 % of control.

In the case of `NC(=O)c1ccc(C(N)=O)cc1`, the survivor count by setting is: under setting [3], 6 of 6; under setting [4], 3 of 6; (dose: 400.0 mg/kg/injection, schedule: Q01DX009 (ip), vehicle: saline with Tween-80) 0 of 6.

For the compound `CCC(=O)O[C@H]1CC[C@H]2[C@@H]3C[C@H](F)C4=CC(=O)CC[C@]4(C)[C@H]3CC[C@]12C`, the survivor count (dose: 100.0 mg/kg/injection, schedule: Q01DX009 (ip), vehicle: saline sonified) is on record as 6 of 6 and the survivor count (dose: 200.0 mg/kg/injection, schedule: Q01DX009 (ip), vehicle: saline sonified) was 5 of 6.

For `O=C(CCl)c1ccc[nH]1`, the survivor count under setting [5] is 5 of 6.

In the case of `C1CCNCC1.O=C([CH-]C(=O)C(F)(F)F)c1cccs1.O=C([CH-]C(=O)C(F)(F)F)c1cccs1.O=C([CH-]C(=O)C(F)(F)F)c1cccs1.O=C([CH-]C(=O)C(F)(F)F)c1cccs1.[Eu+3]`, for the setting “dose: 50.0 mg/kg/injection, schedule: Q01DX009 (ip), vehicle: saline”, the T/C is 134 % of control. Also, the survivor count (dose: 200.0 mg/kg/injection, schedule: Q01DX009 (ip), vehicle: saline) is on record as 4 of 6.

With `CC(C)(C)NCC(CN(CC(CNC(C)(C)C)C(=O)c1ccccc1)C(C)(C)C)C(=O)c1ccccc1` (centres undefined), the T/C was 127 % of control (3×) under setting [6]; 104, 113, 122 % of control under setting [7]; 113 [4 of 6 alive] and 127 % of control under setting [8]. In addition, the survivor count under setting [6] is reported as 0 of 6; the survivor count under setting [7] was 0 of 6; the survivor count under setting [8] is 0 of 6 and 2 of 6.

In the case of `CCCCCCCCC(=O)CCC`, the survivor count was 6 of 6 under setting [5] and 6 of 6 under setting [9].

Consider `Nc1cccnc1`, for which the survivor count (dose: 20.0 mg/kg/injection, schedule: Q01DX009 (ip), vehicle: saline) is on record as 3 of 6.

Take `COC(=O)c1cc(=O)n(-c2ccccc2C(F)(F)F)c(SC)n1`: the T/C under setting [9] was 140 % of control.

Turning to `CN(C)N=C(c1ccccc1)c1ccccc1`, the survivor count (dose: 150.0 mg/kg/injection, schedule: Q01DX009 (ip), vehicle: Klucel (hydroxypropylcellulose) (HPC)) is reported as 0 of 6; the survivor count (dose: 225.0 mg/kg/injection, schedule: Q01DX009 (ip), vehicle: Klucel (hydroxypropylcellulose) (HPC)) is on record as 0 of 6; the survivor count (dose: 335.0 mg/kg/injection, schedule: Q01DX009 (ip), vehicle: Klucel (hydroxypropylcellulose) (HPC)) was 0 of 6.

`Cc1noc(N)c1N`: under setting [2], the T/C is 130 % of control.

Regarding `CCOC(=O)Nc1ccc(/C=C\c2ccnc3ccccc23)cc1`, the survivor count was 6 of 6 under setting [3] and 4 of 6 under setting [4].

As to `CC(=O)OCC1OC(O)C(NC(=O)C(F)(F)F)C(OC(C)=O)C1OC(C)=O` (centres undefined), the survivor count is on record as 3 of 6 (dose: 25.0 mg/kg/injection, schedule: Q04DX003 (ip), vehicle: saline); 0 of 6 (dose: 50.0 mg/kg/injection, schedule: Q04DX003 (ip), vehicle: saline); 0 of 6 (dose: 50.0 mg/kg/injection, schedule: Q## X003 (ip), vehicle: saline).

With `CCn1c(O)c(N=NC(=S)NC)c2ccccc21`, the survivor count reads like this: (dose: 75.0 mg/kg/injection, schedule: Q01DX009 (ip), vehicle: saline with Tween-80) 5 of 6; (dose: 150.0 mg/kg/injection, schedule: Q01DX009 (ip), vehicle: saline with Tween-80) 5 of 6.
